PubChem BioAssay AID1159578 | Peter MacCallum Cancer Centre | 2015
Shown is one part, drawn at random, of about 18,000 reagents. Over the whole deposit, about 1,030 (5.7%) are marked active. 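Inactive calls also include pools with fewer than 3300 nuclei, whose migration was not assessed.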 Raw values are not corrected between plates. Further read-outs or replicates are left out here. No sequences are given here.

Screen: 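Genome-wide hunt for genes controlling movement of lymphatic endothelial cells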 (primary screen)
Cell system: human lymphatic endothelial cells
Reagent: siRNA pool against human genes, 40 nM
Timing: 48 h after transfection
Read-out: 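Cells stained with dye and imaged after a scratch; covered wound area and nuclei counted, duplicates averaged, migration set against mock wells and turned into a robust z-score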
Scale: migration robust z-score: higher = faster migration into the scratch; nuclei per well: higher = more cells in the well
Hit rule: 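Migration changed when robust z exceeds 2 or falls below -2 and mean nuclei number is at least 3300; otherwise not called changed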
Calls: active = migration changed; inactive = no migration change, or too few cells

ASPHD1 (GeneID 253982) scored migration robust z-score -0.54; migration class with cell-count check migration z between -2 and 2; enough cells; nuclei per well, duplicate mean 8140; inactive.
Against DUSP16 (GeneID 80824), the values are migration robust z-score -0.13; migration class with cell-count check migration z between -2 and 2; enough cells; nuclei per well, duplicate mean 4921; inactive.
For PRIMPOL (GeneID 201973), the values are migration robust z-score 0.01; migration class with cell-count check migration z between -2 and 2; enough cells; nuclei per well, duplicate mean 5949; inactive.
For OR1D2 (GeneID 4991), the entry reads migration robust z-score -1.5; migration class with cell-count check migration z between -2 and 2; enough cells; nuclei per well, duplicate mean 5652; inactive.
DERL2 (GeneID 51009) scored migration robust z-score -1.09; migration class with cell-count check migration z between -2 and 2; enough cells; nuclei per well, duplicate mean 3842; inactive.
Depletion of SAMD9 (GeneID 54809) resulted in: migration robust z-score 0.64; migration class with cell-count check migration z between -2 and 2; enough cells; nuclei per well, duplicate mean 4721; inactive.
Against RFPL4A (GeneID 342931), the values are migration robust z-score -2.21; migration class with cell-count check migration z below -2; enough cells; nuclei per well, duplicate mean 4750; active.
After knock-down of ZNF559 (GeneID 84527), the record shows migration robust z-score 3.19; migration class with cell-count check migration z above 2; enough cells; nuclei per well, duplicate mean 6508; active.
Knock-down of ELAVL1 (GeneID 1994) came out at: migration robust z-score 0.5; migration class with cell-count check migration z between -2 and 2; enough cells; nuclei per well, duplicate mean 6280; inactive.
Knock-down of ZNF608 (GeneID 57507) gave: migration robust z-score -0.94; migration class with cell-count check migration z between -2 and 2; enough cells; nuclei per well, duplicate mean 5660; inactive.
ODAD4 (GeneID 83538) showed migration robust z-score 0.03; migration class with cell-count check migration z between -2 and 2; enough cells; nuclei per well, duplicate mean 4548; inactive.
For KCNK5 (GeneID 8645), the values are migration robust z-score -2.05; migration class with cell-count check migration z below -2; enough cells; nuclei per well, duplicate mean 5690; active.
Depletion of CTC1 (GeneID 80169) came out at: migration robust z-score -1.04; migration class with cell-count check migration z between -2 and 2; enough cells; nuclei per well, duplicate mean 6840; inactive.
With knock-down of DYNC2I1 (GeneID 55112), the screen gave migration robust z-score 0.36; migration class with cell-count check migration z between -2 and 2; enough cells; nuclei per well, duplicate mean 6256; inactive.
